Some of the results follow.

By UniProt entry, the sequences of proteins in these tests, tags left out. Where a name states a change or a piece, a line headed by the entry shows the natural chain unless it says otherwise.
UniProt P29597: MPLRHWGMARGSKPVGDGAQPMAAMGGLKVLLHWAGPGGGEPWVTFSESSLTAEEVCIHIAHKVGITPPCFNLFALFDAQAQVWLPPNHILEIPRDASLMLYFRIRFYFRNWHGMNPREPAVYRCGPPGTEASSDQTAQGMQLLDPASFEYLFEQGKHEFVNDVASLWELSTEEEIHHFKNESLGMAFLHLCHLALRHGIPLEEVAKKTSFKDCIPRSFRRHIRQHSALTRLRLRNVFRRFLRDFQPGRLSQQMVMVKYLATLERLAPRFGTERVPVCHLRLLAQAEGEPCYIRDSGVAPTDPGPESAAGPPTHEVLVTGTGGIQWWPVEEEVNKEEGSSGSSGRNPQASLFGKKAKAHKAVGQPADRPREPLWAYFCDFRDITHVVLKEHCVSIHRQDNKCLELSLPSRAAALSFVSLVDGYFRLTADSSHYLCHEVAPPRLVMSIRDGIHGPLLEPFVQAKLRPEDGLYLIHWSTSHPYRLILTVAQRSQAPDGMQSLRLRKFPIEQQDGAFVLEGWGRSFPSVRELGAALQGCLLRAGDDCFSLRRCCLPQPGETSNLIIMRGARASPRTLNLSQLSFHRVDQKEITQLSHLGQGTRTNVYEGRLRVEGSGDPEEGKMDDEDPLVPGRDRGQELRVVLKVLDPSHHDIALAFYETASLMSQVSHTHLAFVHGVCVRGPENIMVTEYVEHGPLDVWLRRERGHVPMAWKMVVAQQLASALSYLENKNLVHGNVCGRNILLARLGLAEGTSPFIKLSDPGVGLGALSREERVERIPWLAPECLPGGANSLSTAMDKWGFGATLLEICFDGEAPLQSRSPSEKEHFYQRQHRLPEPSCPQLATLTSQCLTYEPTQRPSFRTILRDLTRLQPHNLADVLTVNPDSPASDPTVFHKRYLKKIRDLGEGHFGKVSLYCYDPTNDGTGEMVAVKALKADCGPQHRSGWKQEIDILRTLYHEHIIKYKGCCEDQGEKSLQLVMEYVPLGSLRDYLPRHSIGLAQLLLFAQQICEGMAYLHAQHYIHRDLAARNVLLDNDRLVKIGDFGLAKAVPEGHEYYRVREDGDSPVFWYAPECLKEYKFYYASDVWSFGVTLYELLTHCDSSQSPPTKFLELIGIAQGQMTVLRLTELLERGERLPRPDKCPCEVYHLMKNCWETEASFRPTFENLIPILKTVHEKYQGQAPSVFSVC
UniProt Q5T4S7, whole entry, looked up: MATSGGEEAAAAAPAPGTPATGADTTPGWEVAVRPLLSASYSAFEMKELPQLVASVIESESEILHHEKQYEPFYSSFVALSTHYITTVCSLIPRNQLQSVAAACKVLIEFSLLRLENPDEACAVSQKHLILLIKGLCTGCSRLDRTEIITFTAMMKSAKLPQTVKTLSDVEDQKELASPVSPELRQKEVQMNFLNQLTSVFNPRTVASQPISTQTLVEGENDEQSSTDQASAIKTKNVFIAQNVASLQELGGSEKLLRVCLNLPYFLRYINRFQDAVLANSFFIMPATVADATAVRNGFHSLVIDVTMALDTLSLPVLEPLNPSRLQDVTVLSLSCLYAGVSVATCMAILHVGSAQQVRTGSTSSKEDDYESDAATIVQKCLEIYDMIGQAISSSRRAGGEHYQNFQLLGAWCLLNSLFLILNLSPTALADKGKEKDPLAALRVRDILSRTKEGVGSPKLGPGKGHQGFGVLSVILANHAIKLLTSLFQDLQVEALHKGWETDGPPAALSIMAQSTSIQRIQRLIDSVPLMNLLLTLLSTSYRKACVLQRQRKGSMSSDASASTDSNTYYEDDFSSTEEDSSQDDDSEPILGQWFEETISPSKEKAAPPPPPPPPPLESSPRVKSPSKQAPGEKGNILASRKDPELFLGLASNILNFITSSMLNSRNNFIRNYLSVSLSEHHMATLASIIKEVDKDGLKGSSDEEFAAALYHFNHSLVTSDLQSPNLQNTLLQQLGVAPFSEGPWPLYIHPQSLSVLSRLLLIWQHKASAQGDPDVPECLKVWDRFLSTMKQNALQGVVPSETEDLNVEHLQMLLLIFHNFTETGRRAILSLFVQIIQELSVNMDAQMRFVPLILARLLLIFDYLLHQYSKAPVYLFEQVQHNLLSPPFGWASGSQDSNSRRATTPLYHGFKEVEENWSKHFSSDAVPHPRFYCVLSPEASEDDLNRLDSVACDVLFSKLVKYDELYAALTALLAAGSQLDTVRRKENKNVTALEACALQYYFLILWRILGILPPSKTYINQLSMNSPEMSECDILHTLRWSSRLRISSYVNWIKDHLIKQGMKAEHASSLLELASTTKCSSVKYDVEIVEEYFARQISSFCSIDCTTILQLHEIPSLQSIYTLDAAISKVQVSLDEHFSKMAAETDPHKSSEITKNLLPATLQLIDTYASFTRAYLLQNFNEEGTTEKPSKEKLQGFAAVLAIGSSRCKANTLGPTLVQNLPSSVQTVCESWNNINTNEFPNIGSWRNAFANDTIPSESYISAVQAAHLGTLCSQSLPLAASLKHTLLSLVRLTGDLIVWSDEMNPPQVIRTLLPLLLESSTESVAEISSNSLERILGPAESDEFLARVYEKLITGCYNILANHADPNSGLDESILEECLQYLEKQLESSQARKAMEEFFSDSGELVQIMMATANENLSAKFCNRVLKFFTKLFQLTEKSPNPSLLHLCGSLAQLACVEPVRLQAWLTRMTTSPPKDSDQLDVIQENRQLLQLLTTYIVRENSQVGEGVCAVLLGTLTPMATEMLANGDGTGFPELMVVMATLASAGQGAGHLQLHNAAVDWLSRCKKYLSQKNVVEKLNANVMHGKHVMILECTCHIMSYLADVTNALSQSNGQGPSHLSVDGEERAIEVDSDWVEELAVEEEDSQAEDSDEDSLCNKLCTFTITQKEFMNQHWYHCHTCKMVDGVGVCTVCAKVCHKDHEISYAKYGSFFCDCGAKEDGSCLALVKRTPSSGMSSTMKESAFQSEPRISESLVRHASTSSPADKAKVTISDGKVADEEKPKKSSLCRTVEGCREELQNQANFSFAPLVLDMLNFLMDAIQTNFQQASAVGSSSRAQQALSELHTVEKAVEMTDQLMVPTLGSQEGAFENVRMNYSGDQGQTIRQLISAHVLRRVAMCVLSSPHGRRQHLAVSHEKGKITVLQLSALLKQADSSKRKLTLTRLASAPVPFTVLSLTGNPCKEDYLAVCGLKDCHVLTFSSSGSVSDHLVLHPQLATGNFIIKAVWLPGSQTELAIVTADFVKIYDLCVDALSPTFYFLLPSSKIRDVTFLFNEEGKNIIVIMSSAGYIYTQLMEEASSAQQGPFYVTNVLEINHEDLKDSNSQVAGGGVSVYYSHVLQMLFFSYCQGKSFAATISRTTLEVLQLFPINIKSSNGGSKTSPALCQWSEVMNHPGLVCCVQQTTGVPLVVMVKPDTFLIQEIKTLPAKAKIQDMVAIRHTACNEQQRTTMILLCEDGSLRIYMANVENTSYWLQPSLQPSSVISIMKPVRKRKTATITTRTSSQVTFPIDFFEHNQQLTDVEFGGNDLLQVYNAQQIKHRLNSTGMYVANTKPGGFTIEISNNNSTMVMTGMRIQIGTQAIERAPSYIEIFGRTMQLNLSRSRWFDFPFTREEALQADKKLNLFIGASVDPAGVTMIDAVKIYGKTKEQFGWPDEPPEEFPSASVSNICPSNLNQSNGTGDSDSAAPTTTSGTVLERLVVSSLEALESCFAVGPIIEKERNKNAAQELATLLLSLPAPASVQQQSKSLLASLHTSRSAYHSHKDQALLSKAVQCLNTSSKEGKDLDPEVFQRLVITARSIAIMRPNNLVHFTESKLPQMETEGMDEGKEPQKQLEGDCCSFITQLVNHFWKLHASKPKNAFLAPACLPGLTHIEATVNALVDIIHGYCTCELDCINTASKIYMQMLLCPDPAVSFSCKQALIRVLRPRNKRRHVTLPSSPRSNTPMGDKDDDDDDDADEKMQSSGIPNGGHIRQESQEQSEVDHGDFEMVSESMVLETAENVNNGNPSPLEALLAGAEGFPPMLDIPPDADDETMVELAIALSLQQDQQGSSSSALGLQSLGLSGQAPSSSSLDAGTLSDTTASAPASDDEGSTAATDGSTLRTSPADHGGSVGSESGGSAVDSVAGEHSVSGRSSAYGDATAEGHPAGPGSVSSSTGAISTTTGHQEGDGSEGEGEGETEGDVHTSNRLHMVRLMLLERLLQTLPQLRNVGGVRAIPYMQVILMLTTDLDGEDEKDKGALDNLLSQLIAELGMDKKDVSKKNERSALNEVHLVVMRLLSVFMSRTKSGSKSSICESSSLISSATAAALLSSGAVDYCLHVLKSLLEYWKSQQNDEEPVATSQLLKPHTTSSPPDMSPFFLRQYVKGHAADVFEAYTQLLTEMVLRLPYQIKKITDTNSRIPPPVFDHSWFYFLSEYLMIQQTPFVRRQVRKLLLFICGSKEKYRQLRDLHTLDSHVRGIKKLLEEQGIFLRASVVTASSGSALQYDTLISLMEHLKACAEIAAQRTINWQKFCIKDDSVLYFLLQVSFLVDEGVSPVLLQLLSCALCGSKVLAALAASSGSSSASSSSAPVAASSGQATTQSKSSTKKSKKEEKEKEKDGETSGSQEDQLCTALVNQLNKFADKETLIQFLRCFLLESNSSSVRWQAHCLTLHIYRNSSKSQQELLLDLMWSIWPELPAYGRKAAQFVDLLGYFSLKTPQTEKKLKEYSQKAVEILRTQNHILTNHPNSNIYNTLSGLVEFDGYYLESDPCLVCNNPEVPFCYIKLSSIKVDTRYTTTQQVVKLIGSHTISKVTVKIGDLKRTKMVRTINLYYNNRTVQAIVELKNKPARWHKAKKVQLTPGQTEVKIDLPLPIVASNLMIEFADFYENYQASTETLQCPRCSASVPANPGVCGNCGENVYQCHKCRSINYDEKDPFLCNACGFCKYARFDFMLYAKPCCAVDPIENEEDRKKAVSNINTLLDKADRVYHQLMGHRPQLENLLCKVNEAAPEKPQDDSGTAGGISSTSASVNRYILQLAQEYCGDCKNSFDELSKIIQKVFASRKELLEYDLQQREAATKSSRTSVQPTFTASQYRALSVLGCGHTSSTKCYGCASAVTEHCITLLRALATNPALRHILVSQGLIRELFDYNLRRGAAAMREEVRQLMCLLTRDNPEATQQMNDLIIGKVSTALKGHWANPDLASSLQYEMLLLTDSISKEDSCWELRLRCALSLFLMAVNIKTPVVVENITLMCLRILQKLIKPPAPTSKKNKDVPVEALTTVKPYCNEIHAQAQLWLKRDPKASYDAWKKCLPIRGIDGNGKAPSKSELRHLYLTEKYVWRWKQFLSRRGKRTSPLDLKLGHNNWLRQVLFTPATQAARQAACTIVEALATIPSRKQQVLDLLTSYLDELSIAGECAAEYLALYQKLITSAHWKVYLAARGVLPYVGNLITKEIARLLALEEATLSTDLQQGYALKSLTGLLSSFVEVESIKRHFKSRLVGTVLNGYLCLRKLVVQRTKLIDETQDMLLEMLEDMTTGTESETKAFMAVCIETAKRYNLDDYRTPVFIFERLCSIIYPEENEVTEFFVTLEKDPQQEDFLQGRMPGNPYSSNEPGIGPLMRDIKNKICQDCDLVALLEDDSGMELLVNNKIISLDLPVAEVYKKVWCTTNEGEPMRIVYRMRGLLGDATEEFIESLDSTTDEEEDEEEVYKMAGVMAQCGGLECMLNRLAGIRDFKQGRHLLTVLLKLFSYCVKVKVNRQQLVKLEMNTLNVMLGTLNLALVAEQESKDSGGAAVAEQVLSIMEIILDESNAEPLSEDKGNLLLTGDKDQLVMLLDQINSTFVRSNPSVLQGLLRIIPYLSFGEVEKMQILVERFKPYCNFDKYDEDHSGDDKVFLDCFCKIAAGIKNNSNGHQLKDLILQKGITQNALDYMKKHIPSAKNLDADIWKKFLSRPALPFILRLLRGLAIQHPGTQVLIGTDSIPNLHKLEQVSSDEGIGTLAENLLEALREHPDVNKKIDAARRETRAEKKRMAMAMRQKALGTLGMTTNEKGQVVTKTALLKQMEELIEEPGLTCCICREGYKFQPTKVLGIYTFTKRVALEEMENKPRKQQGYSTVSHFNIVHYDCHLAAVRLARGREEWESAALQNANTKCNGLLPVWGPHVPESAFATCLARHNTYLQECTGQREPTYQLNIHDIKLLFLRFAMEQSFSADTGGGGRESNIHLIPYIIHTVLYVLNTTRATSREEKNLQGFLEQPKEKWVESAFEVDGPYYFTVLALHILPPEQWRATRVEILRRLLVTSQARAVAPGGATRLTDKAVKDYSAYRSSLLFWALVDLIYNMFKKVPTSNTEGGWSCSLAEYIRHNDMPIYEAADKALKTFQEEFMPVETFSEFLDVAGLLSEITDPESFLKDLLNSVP

Compound in this test: Cc1cc(ccc1-c1ccccc1)C(=O)N1CCCN(CC1)C(=O)CCl [compound 10]
Kind of test: probe-labelled cysteine peptide fold change vs DMSO (competition) (log2 fold change); higher = less target engagement (more negative = stronger competition). The following applies: THP-1, incubation time: 4 h.
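Further: competitive profiling in live THP-1 cells: cysteine peptides tagged with an iodoacetamide desthiobiotin (IA-DTB) probe, intensity after compound treatment relative to DMSO-treated cells.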

Turning to “TYK2_P29597_1140_CPCEVYHLMK (UniProt P29597)”, the “probe-labelled cysteine peptide fold change” value runs as follows: (10 µM) -0.383; (50 µM) -0.903.

As to “TYMP_P19971_280+293_CVGHALEVEEALLCMDGAGPPDLR (UniProt P19971)”, the “probe-labelled cysteine peptide fold change” value runs as follows: (10 µM) 0.167; (50 µM) 0.0257.

For “UBA6_A0AVT1_625_GHTEVIVPHLTESYNSHRDPPEEEIPFCTLK”, the “probe-labelled cysteine peptide fold change” value is -0.0656 (10 µM) and 0.0224 (50 µM).

For “TYK2_P29597_278_VPVCHLR (UniProt P29597)”, the “probe-labelled cysteine peptide fold change” value is -0.104 (10 µM) and -0.188 (50 µM).

On to “UBAP2_Q5T6F2_71+78_NQDECIVALHDCNGDVNK (UniProt Q5T6F2)”, for which the “probe-labelled cysteine peptide fold change” value is 0.23 (10 µM) and 0.163 (50 µM).

Take “UBA2_Q9UBT2_161_GVTECYECHPKPTQR (UniProt Q9UBT2)”: the “probe-labelled cysteine peptide fold change” value reads like this: (10 µM) 0.0536; (50 µM) -0.135.

Turning to “UBE2O_Q9C0C9_163_STDSQCGTVIDVNIDCAVK (UniProt Q9C0C9)”, the “probe-labelled cysteine peptide fold change” value by setting is: (10 µM) -0.131; (50 µM) 0.325.

Regarding “UBR4_Q5T4S7_2618_QLEGDCCSFITQLVNHFWK (UniProt Q5T4S7)”, the “probe-labelled cysteine peptide fold change” value is 0.117 (10 µM) and -0.179 (50 µM).

In the case of “UBR4_Q5T4S7_1970_EDYLAVCGLK (UniProt Q5T4S7)”, the “probe-labelled cysteine peptide fold change” value reads like this: (10 µM) 0.0724; (50 µM) 0.0097.

In the case of “UBR2_Q8IWV8_1360_ILSDEDKPLFGPLPCR (UniProt Q8IWV8)”, the “probe-labelled cysteine peptide fold change” value reads like this: (10 µM) -0.203; (50 µM) -0.412.

On to “UBR1_Q8IWV7_1369_ITCPQVLIQK (UniProt Q8IWV7)”, for which the “probe-labelled cysteine peptide fold change” value (10 µM) was -0.179 and the “probe-labelled cysteine peptide fold change” value (50 µM) came to 0.281.
